In PMC4895218, “Structural flexibility of the periplasmic protein, FlgA, regulates flagellar P-ring assembly in Salmonella enterica” (Scientific Reports, 2016):
These are yes or no findings as the source states them, for the method shown. In cells and extracts the contact can be indirect. Some results given as binding are weak or reduced against the parent protein; the word gives no strength. Tags and fused reporters may be left off the sequences shown.

Target: T1, N-terminally His-tagged FlgI (Salmonella enterica serovar Typhimurium, UniProt P15930 20-365)
T1 construct: FlgI, flagellar P-ring component protein, Salmonella enterica serovar Typhimurium; Probably without its Sec signal peptide (surmise); also called His-FlgI; source: E. coli Origami2 (DE3), co-expressed, in cell extract (pull-down); purified (SPR); not shown: His tag, N-terminal, kept
T1 sequence (looked up): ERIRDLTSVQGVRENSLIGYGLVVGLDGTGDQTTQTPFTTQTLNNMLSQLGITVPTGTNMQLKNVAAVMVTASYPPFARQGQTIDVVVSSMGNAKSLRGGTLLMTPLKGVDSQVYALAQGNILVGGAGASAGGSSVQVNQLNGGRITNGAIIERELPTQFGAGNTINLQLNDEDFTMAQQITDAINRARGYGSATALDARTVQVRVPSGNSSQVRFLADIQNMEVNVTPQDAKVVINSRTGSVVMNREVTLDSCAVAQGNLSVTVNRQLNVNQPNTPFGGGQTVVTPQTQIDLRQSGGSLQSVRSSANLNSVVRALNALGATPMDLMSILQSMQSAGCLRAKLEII
Test: pull-down; TALON metal affinity spin column; cell extracts of E. coli Origami2 (DE3) co-expressing His-FlgI and FlgA proteins; wash 10 mM imidazole, elution 300 mM imidazole; immunoblot with antibodies against FlgA and FlgI

B1: FlgA (purified, histidine tag removed) (natural protein, Salmonella enterica serovar Typhimurium)
chain: QDINAQLTTWFSQRLAGFSDEVVVTLRSSPNLLPSCEQPAFSMTGSAKLWGNVNVVARCANEKRYLQVNVQATGNYVAVAAPIARGGKLTPANVTLKRGRLDQLPPRTVLDIRQIQDAVSLRDLAPGQPVQLTMIRQAWRVKAGQRVQVIANGEGFSVNAEGQAMNNAAVAQNARVRMTSGQIVSGTVDSDGNILINL
notes: FlgA, Salmonella enterica serovar Typhimurium; numbers count on: the mature protein (Q1-L198); The crystallised FlgA was another construct (C-terminal hexa-histidine-tagged precursor purified from the periplasm of E. coli); source: purified; N-terminal-fused histidine tag removed with thrombin prior to gel filtration; not shown: His tag, N-terminal, cleaved
binding: binds
